Laboratory results reported in PubChem BioAssay AID328 (DTP/NCI, 2004).
The list shows only some results of the screen, not a fair sample: it is rich in T/C values a quarter to a half above the control, in often repeated tests (any T/C) and in doses without a T/C. Further doses and runs are listed elsewhere. T/C gives the treated animals as a percentage of the vehicle group. Some doses have a count of surviving animals in place of a T/C: the source files T/C as zero there, which appears to mark a toxic dose or a test without result, not a measured value. Some survivor counts are full or nearly so, which does not show that the dose was tolerated: survival well below the control is almost never listed, so the zero probably covers shortened survival too. Counts of survivors are from the toxicity check (mostly the fifth day) where no day follows; animals may have died later. Schedule codes are those of the source, taken here to give the interval after Q, in days (D) or hours (H), and the number of doses after X. For survival time, the PubChem record calls one and a half times the control and up active, and a quarter to a half above the control has no call in these data; cut-offs in other NCI protocols can differ. Some T/C values are followed by the survivors on the day toxicity was checked, most often the fifth; without a count, all were alive then.

System: BDF1 mice, P388 leukemia ip, median survival T/C
Test: NCI In Vivo Anticancer Drug Screen. Data for tumor model P388 Leukemia (intraperitoneal) in B6D2F1 (BDF1) mice
Settings: T/C endpoint: median survival time, higher T/C = longer survival
Method in brief: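 Antitumour effect was judged in vivo: survival in drug-treated mice, normalised to that of vehicle-dosed controls, gives the reported T/C.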

[1] = dose: 100.0 mg/kg/injection, schedule: Q04DX003 (ip), vehicle: saline
[2] = dose: 200.0 mg/kg/injection, schedule: Q01DX009 (ip), vehicle: saline with Tween-80
[3] = dose: 400.0 mg/kg/injection, schedule: Q01DX009 (ip), vehicle: saline with Tween-80
[4] = dose: 150.0 mg/kg/injection, schedule: Q01DX009 (ip), vehicle: saline
[5] = dose: 25.0 mg/kg/injection, schedule: Q04DX003 (ip), vehicle: saline
[6] = dose: 200.0 mg/kg/injection, schedule: Q04DX003 (ip), vehicle: saline
[7] = dose: 400.0 mg/kg/injection, schedule: Q04DX003 (ip), vehicle: saline
[8] = dose: 100.0 mg/kg/injection, schedule: Q01DX009 (ip), vehicle: saline with Tween-80
[9] = dose: 50.0 mg/kg/injection, schedule: Q04DX003 (ip), vehicle: saline

Cc1ccc(Oc2ccc3cc[n+](C)cc3c2)cc1
survivor count (dose: 25.0 mg/kg/injection, schedule: Q01DX009 (ip), vehicle: saline): 3 of 6

CN(C)c1nn2c(-c3ccccc3)nnc2o1
T/C [1]: 125 % of control

CC(C)CCC[C@@H](C)[C@H]1CC[C@H]2[C@@H]3CC=C4C[C@@H](O)CC[C@]4(C)[C@H]3CC[C@]12C
survivor count (dose: 1600.0 mg/kg/injection, schedule: Q01DX009 (ip), vehicle: other): 4 of 6

COC(=O)C1CCCCC1C(=O)OC (stereo not drawn)
T/C (dose: 400.0 mg/kg/injection, schedule: Q01DX009 (ip), vehicle: saline): 127 % of control

COc1ccc(C(CCl)(CCl)c2ccc(OC)c(C)c2)cc1C
survivor count [2]: 6 of 6

CN(C)c1ccc(-c2cc(C(=O)O)c3cc4ccccc4cc3n2)cc1
survivor count [2]: 5 of 6
survivor count [3]: 4 of 6

COc1ccc2c(c1OC)CN(C)CCc1cc3c(cc1C(=O)C2)OCO3
survivor count (dose: 75.0 mg/kg/injection, schedule: Q01DX009 (ip), vehicle: saline with Tween-80): 5 of 6
survivor count (dose: 150.0 mg/kg/injection, schedule: Q01DX009 (ip), vehicle: saline with Tween-80): 3 of 6

COc1cc2c(cc1OC)C1=C(CC2)C2CCCN2CC1 (stereo not drawn)
survivor count (dose: 50.0 mg/kg/injection, schedule: Q01DX009 (ip), vehicle: saline): 5 of 6

N#CC12CC3CC(CC(C3)C1)C2
survivor count (dose: 10.0 mg/kg/injection, schedule: Q01DX009 (ip), vehicle: saline with Tween-80): 6 of 6

O=C(N/N=C\c1ccc(N(CCCl)CCCl)cc1)c1cccnc1
survivor count (dose: 400.0 mg/kg/injection, schedule: Q01DX009 (ip), vehicle: gum acacia): 5 of 6

NC(Cc1c[nH]c2cc(N(CCCl)CCCl)ccc12)C(=O)O (stereo not drawn)
T/C (dose: 2.0 mg/kg/injection, schedule: Q04DX003 (sc), vehicle: olive oil, sesame oil, peanut oil): 125 % of control
survivor count (dose: 3.0 mg/kg/injection, schedule: Q01DX009 (sc), vehicle: olive oil, sesame oil, peanut oil): 2 of 6
T/C (dose: 3.0 mg/kg/injection, schedule: Q04DX003 (sc), vehicle: olive oil, sesame oil, peanut oil): 141 % of control
survivor count (dose: 6.0 mg/kg/injection, schedule: Q01DX009 (sc), vehicle: olive oil, sesame oil, peanut oil): 6 of 6
survivor count (dose: 12.0 mg/kg/injection, schedule: Q01DX009 (sc), vehicle: olive oil, sesame oil, peanut oil): 4 of 6
survivor count (dose: 12.0 mg/kg/injection, schedule: Q04DX003 (sc), vehicle: olive oil, sesame oil, peanut oil): 6 of 6
survivor count (dose: 25.0 mg/kg/injection, schedule: Q04DX003 (sc), vehicle: olive oil, sesame oil, peanut oil): 5 of 6
survivor count (dose: 50.0 mg/kg/injection, schedule: Q04DX003 (sc), vehicle: olive oil, sesame oil, peanut oil): 4 of 6
survivor count (dose: 100.0 mg/kg/injection, schedule: Q04DX003 (sc), vehicle: olive oil, sesame oil, peanut oil): 0 of 6
survivor count (dose: 200.0 mg/kg/injection, schedule: Q04DX003 (sc), vehicle: olive oil, sesame oil, peanut oil): 0 of 6
survivor count (dose: 400.0 mg/kg/injection, schedule: Q04DX003 (sc), vehicle: olive oil, sesame oil, peanut oil): 0 of 6

N=c1c2ccccc2nc2n1CCCCCCC2
survivor count (dose: 100.0 mg/kg/injection, schedule: Q04DX003 (ip), vehicle: Klucel (hydroxypropylcellulose) (HPC)): 0 of 6
survivor count (dose: 200.0 mg/kg/injection, schedule: Q04DX003 (ip), vehicle: Klucel (hydroxypropylcellulose) (HPC)): 0 of 6
survivor count (dose: 400.0 mg/kg/injection, schedule: Q04DX003 (ip), vehicle: Klucel (hydroxypropylcellulose) (HPC)): 0 of 6

CCN(CC)CCCC(C)Nc1c2ccc(Cl)cc2nc2ccc(OC)cc12 (stereo not drawn)
T/C [4]: 131 % of control
survivor count [4]: 5 of 6
T/C (dose: 150.0 mg/kg/injection, schedule: Q04DX003 (ip), vehicle: saline): 125 % of control
survivor count (dose: 225.0 mg/kg/injection, schedule: Q04DX003 (ip), vehicle: saline): 4 of 6
survivor count (dose: 300.0 mg/kg/injection, schedule: Q04DX003 (ip), vehicle: saline): 1 of 6

CSc1nc(Cl)cc(N2CC2)n1
survivor count (dose: 1.56 mg/kg/injection, schedule: Q01DX009 (ip), vehicle: saline): 0 of 6
survivor count (dose: 5.6 mg/kg/injection, schedule: Q04DX003 (ip), vehicle: saline): 0 of 6
survivor count (dose: 6.25 mg/kg/injection, schedule: Q04DX003 (ip), vehicle: saline): 0 of 6
survivor count (dose: 8.4 mg/kg/injection, schedule: Q04DX003 (ip), vehicle: saline): 0 of 6
survivor count (dose: 12.5 mg/kg/injection, schedule: Q04DX003 (ip), vehicle: saline): 3 of 6
survivor count [5]: 1 of 6
survivor count [1]: 0 of 6
survivor count [6]: 0 of 6
survivor count [7]: 0 of 6

N#Cc1ccc(S(N)(=O)=O)cc1
survivor count [8]: 6 of 6
survivor count [2]: 6 of 6

COC(=O)CCC(=O)CCC(C)C
survivor count [8]: 6 of 6

Nc1ccc(C(=O)O)cc1S(=O)(=O)c1cc(C(=O)O)ccc1N
survivor count (dose: 200.0 mg/kg/injection, schedule: Q01DX009 (ip), vehicle: Klucel (hydroxypropylcellulose) (HPC)): 6 of 6

C=C1C(=O)OC2/C=C(/C)C(OC(C)=O)CC(O)/C(C)=C\C(OC(=O)/C(C)=C\C)C12 (stereo not drawn)
T/C (dose: 60.0 mg/kg/injection, schedule: Q01DX010 (ip), vehicle: saline): 135 % of control

CNc1ccc2c(c1)C(=O)c1c(C)n(C)c3cccc-2c13
survivor count (dose: 50.0 mg/kg/injection, schedule: Q01DX005 (ip), vehicle: saline with Tween-80): 6 of 6

C[N+](C)(C)CN1C(=O)c2ccccc2C1=O
survivor count (dose: 200.0 mg/kg/injection, schedule: Q01DX009 (ip), vehicle: saline): 2 of 6

CC(=O)OCCN1CCN(CCCN2c3ccccc3Sc3ccc(C(F)(F)F)cc32)CC1
T/C (dose: 1.56 mg/kg/injection, schedule: Q01DX009 (ip), vehicle: saline with Tween-80): 127 % of control
survivor count (dose: 3.12 mg/kg/injection, schedule: Q01DX009 (ip), vehicle: saline with Tween-80): 6 of 6
survivor count (dose: 6.25 mg/kg/injection, schedule: Q01DX009 (ip), vehicle: saline with Tween-80): 6 of 6
survivor count (dose: 12.5 mg/kg/injection, schedule: Q01DX009 (ip), vehicle: saline with Tween-80): 4 of 7
T/C (dose: 12.5 mg/kg/injection, schedule: Q04DX003 (ip), vehicle: saline with Tween-80): 126 % of control
survivor count (dose: 25.0 mg/kg/injection, schedule: Q01DX009 (ip), vehicle: saline with Tween-80): 0 of 7
T/C [5]: 145 % of control
survivor count (dose: 50.0 mg/kg/injection, schedule: Q01DX009 (ip), vehicle: saline with Tween-80): 0 of 7
survivor count [9]: 3 of 6
survivor count [8]: 0 of 7
survivor count (dose: 100.0 mg/kg/injection, schedule: Q04DX003 (ip), vehicle: saline with Tween-80): 5 of 6
T/C [1]: 135 % of control [4 of 6 alive]

CC(=O)Nc1ccc2c(Nc3ccc(NS(C)(=O)=O)cc3)c3ccccc3nc2c1
T/C (dose: 3.75 mg/kg/injection, schedule: Q01DX009 (ip), vehicle: saline): 129 % of control
survivor count (dose: 10.0 mg/kg/injection, schedule: Q01DX009 (ip), vehicle: saline): 6 of 6
survivor count (dose: 20.0 mg/kg/injection, schedule: Q01DX009 (ip), vehicle: saline): 6 of 6
survivor count [9]: 6 of 6
survivor count [1]: 6 of 6
survivor count [6]: 6 of 6
survivor count [7]: 6 of 6
T/C (dose: 60.0 micrograms/kg/injection, schedule: Q04DX003 (ip), vehicle: saline): 127 % of control

O=C(Nc1cccc(S(=O)(=O)F)c1)c1ccc(COc2ccc([N+](=O)[O-])cc2Cl)cc1
survivor count [3]: 5 of 6

CCOC(=O)C(=O)CC1=CC=CC2=NC(=O)CCN12
T/C (dose: 100.0 mg/kg/injection, schedule: Q01DX001 (ip), vehicle: saline with Tween-80): 131 % of control
survivor count (dose: 400.0 mg/kg/injection, schedule: Q01DX001 (ip), vehicle: saline with Tween-80): 2 of 6

CC(=Nc1ccccc1)C1=C(O)C(Cc2ccccc2)NC1=O (stereo not drawn)
T/C [8]: 137 % of control
survivor count [2]: 5 of 6
survivor count [3]: 0 of 6
